Measurements taken from the supplement of paper PMC8728848.
Some of the results follow.

Legend:
Experiment in all cases: glycan array binding signal (z-score within array); higher = stronger binding
Conditions in all cases: glycan notation: IUPAC condensed, linker removed
[1] = molecular target: Fuc(a1-2)[GalNAc(a1-3)]Gal(b1-4)GlcNAc(b1-6)GalNAc
Summary of the method: (§1)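 Negative Z-scores can be read as non-binding. The Z-score is calculated within each array and then averaged across arrays of one protein sequence at different concentrations or buffers and across linkers. Arrays, 3228 in all, were curated from the Consortium for Functional Glycomics database and kept only where the protein sequence was available.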

[2] = molecular target: Fuc(a1-2)[GalNAc(a1-3)]Gal(b1-4)[Fuc(a1-3)]GlcNAc
Summary of the method: as §1

[3] = molecular target: Fuc(a1-2)[GalNAc(a1-3)]Gal(b1-4)[Fuc(a1-3)]GlcNAc(b1-3)GalNAc
Summary of the method: as §1

[4] = molecular target: Fuc(a1-2)[GalNAc(a1-4)]Gal(b1-4)GlcNAc
Summary of the method: as §1

[5] = molecular target: Fuc(a1-2)[GalNAc(b1-3)]Gal
Summary of the method: as §1

Fuc(a1-3)GlcNAc = molecular target: Fuc(a1-3)GlcNAc
Summary of the method: as §1

[6] = molecular target: Fuc(a1-3)[Gal(b1-4)]Glc6S
Summary of the method: as §1

[7] = molecular target: Fuc(a1-3)[Gal(b1-4)]GlcNAc
Summary of the method: as §1

[8] = molecular target: Fuc(a1-3)[Gal(b1-4)]GlcNAc(b1-2)Man
Summary of the method: as §1

[9] = molecular target: Fuc(a1-3)[Gal(b1-4)]GlcNAc(b1-2)Man(a1-3)[Fuc(a1-3)[Gal(b1-4)]GlcNAc(b1-2)Man(a1-6)]Man(b1-4)GlcNAc(b1-4)GlcNAc
Summary of the method: as §1

[10] = molecular target: Fuc(a1-3)[Gal(b1-4)]GlcNAc(b1-2)Man(a1-3)[Fuc(a1-3)[Gal(b1-4)]GlcNAc(b1-2)Man(a1-6)]Man(b1-4)GlcNAc(b1-4)[Fuc(a1-6)]GlcNAc
Summary of the method: as §1

[11] = molecular target: Fuc(a1-3)[Gal(b1-4)]GlcNAc(b1-3)Gal(b1-3)[Fuc(a1-4)]GlcNAc
Summary of the method: as §1

[12] = molecular target: Fuc(a1-3)[Gal(b1-4)]GlcNAc(b1-3)Gal(b1-4)[Fuc(a1-3)]GlcNAc
Summary of the method: as §1

[13] = molecular target: Fuc(a1-3)[Gal(b1-4)]GlcNAc(b1-3)Gal(b1-4)[Fuc(a1-3)]GlcNAc(b1-3)Gal(b1-4)[Fuc(a1-3)]GlcNAc
Summary of the method: as §1

[14] = molecular target: Fuc(a1-3)[Gal(b1-4)]GlcNAc(b1-3)GalNAc
Summary of the method: as §1

[15] = molecular target: Fuc(a1-3)[Gal(b1-4)]GlcNAc(b1-4)Gal(b1-4)[Fuc(a1-3)]GlcNAc
Summary of the method: as §1

[16] = molecular target: Fuc(a1-3)[Gal(b1-4)]GlcNAc(b1-4)Gal(b1-4)[Fuc(a1-3)]GlcNAc(b1-4)Gal(b1-4)[Fuc(a1-3)]GlcNAc
Summary of the method: as §1

[17] = molecular target: Fuc(a1-3)[Gal(b1-4)]GlcNAc(b1-6)GalNAc
Summary of the method: as §1

[18] = molecular target: Fuc(a1-3)[Gal(b1-4)]GlcNAc(b1-6)[Gal(b1-3)GlcNAc(b1-3)]Gal(b1-4)Glc
Summary of the method: as §1

[19] = molecular target: Fuc(a1-3)[Gal(b1-4)]GlcNAc6S
Summary of the method: as §1

[20] = molecular target: Fuc(a1-3)[Gal3S(b1-4)]Glc
Summary of the method: as §1

[21] = molecular target: Fuc(a1-3)[Gal3S(b1-4)]GlcNAc
Summary of the method: as §1

[22] = molecular target: Fuc(a1-3)[Gal3S(b1-4)]GlcNAc6S
Summary of the method: as §1

[23] = molecular target: Fuc(a1-3)[GalNAc(b1-4)]GlcNAc
Summary of the method: as §1

[24] = molecular target: Fuc(a1-3)[GalNAc(b1-4)]GlcNAc6S
Summary of the method: as §1

Fuc(a1-4)GlcNAc = molecular target: Fuc(a1-4)GlcNAc
Summary of the method: as §1

Fuc(b1-3)GlcNAc = molecular target: Fuc(b1-3)GlcNAc
Summary of the method: as §1

Gal(a1-2)Gal = molecular target: Gal(a1-2)Gal
Summary of the method: as §1

Gal(a1-3)Gal = molecular target: Gal(a1-3)Gal
Summary of the method: as §1

Gal(a1-3)Gal(b1-3)GlcNAc = molecular target: Gal(a1-3)Gal(b1-3)GlcNAc
Summary of the method: as §1

B1: GST-Gap1 (Streptococcus parasanguinis), A1C3L5 (protein)
chain: MFYFVPSWYNGQRQWYYDTPWWFRVKNRMTFDDSVNQVKMFLQGQEEIGLMILNYQPQLRYFLHKQNIFGIYYWSFFDDIQNITRSYTKIIHLKDLNWPEGCEFLYSPFAVVVRLKGEIFAIVNYAEDGNLHSVSFQKNGKVTKDYIFDDRGFLSSILYYDIDERPLYQDYLNINGVWQVREFLKKENDPTPILMINDFSDQTFSKKYYNGWEELIKERLAIFQNNHVENEDVFVLASDTQHNQLVSSIFKEHRKIYSFFGNRFNLENLGQDRISINDATFLVVDTEKNEELLRKTCENLVFKSIPIVRLSPFDSRLRLGHSQTVKEQIIYFHIDNIELDELYSVIAIILELMTLHLDIELRIVTFRQDFQLDLLKTWIIDFIKTNHFEDLLFKQISEGENEIEDEGEIELSRIAMECFTNENQIIKCLDTARLVIDLGIEPDLYTQIASISAGIPQINRVSSDYVIHQKNGLVISDISKLSSAIEFYFDGLFNWNEALIYAVRKMSDYTSGKILKQWKGMLKKK
[1]
  glycan array binding signal (z-score): -1.44
[2]
  glycan array binding signal (z-score): -0.141
[3]
  glycan array binding signal (z-score): 0.024
[4]
  glycan array binding signal (z-score): 0.392
[5]
  glycan array binding signal (z-score): 0.109
Fuc(a1-3)GlcNAc
  glycan array binding signal (z-score): -0.531
[6]
  glycan array binding signal (z-score): -0.01
[7]
  glycan array binding signal (z-score): -0.306
[8]
  glycan array binding signal (z-score): -0.692
[9]
  glycan array binding signal (z-score): -0.381
[10]
  glycan array binding signal (z-score): 0.493
[11]
  glycan array binding signal (z-score): 0.056
[12]
  glycan array binding signal (z-score): 0.358
[13]
  glycan array binding signal (z-score): -0.426
[14]
  glycan array binding signal (z-score): -0.461
[15]
  glycan array binding signal (z-score): 0.372
[16]
  glycan array binding signal (z-score): -0.256
[17]
  glycan array binding signal (z-score): -1.44
[18]
  glycan array binding signal (z-score): -0.333
[19]
  glycan array binding signal (z-score): 0.098
[20]
  glycan array binding signal (z-score): 0.22
[21]
  glycan array binding signal (z-score): -0.633
[22]
  glycan array binding signal (z-score): 0.696
[23]
  glycan array binding signal (z-score): 0.035
[24]
  glycan array binding signal (z-score): -0.687
Fuc(a1-4)GlcNAc
  glycan array binding signal (z-score): -0.282
Fuc(b1-3)GlcNAc
  glycan array binding signal (z-score): -0.341
Gal(a1-2)Gal
  glycan array binding signal (z-score): -0.401
Gal(a1-3)Gal
  glycan array binding signal (z-score): -0.291
Gal(a1-3)Gal(b1-3)GlcNAc
  glycan array binding signal (z-score): -0.015
